Binding data for two substances are collected here from publication doi:10.1101/2020.11.12.379222.

Amino acid sequences for entries named in this document (tags omitted). A change or cut given only in a name is not applied to a line headed by its entry.
UniProt Q9JLU4: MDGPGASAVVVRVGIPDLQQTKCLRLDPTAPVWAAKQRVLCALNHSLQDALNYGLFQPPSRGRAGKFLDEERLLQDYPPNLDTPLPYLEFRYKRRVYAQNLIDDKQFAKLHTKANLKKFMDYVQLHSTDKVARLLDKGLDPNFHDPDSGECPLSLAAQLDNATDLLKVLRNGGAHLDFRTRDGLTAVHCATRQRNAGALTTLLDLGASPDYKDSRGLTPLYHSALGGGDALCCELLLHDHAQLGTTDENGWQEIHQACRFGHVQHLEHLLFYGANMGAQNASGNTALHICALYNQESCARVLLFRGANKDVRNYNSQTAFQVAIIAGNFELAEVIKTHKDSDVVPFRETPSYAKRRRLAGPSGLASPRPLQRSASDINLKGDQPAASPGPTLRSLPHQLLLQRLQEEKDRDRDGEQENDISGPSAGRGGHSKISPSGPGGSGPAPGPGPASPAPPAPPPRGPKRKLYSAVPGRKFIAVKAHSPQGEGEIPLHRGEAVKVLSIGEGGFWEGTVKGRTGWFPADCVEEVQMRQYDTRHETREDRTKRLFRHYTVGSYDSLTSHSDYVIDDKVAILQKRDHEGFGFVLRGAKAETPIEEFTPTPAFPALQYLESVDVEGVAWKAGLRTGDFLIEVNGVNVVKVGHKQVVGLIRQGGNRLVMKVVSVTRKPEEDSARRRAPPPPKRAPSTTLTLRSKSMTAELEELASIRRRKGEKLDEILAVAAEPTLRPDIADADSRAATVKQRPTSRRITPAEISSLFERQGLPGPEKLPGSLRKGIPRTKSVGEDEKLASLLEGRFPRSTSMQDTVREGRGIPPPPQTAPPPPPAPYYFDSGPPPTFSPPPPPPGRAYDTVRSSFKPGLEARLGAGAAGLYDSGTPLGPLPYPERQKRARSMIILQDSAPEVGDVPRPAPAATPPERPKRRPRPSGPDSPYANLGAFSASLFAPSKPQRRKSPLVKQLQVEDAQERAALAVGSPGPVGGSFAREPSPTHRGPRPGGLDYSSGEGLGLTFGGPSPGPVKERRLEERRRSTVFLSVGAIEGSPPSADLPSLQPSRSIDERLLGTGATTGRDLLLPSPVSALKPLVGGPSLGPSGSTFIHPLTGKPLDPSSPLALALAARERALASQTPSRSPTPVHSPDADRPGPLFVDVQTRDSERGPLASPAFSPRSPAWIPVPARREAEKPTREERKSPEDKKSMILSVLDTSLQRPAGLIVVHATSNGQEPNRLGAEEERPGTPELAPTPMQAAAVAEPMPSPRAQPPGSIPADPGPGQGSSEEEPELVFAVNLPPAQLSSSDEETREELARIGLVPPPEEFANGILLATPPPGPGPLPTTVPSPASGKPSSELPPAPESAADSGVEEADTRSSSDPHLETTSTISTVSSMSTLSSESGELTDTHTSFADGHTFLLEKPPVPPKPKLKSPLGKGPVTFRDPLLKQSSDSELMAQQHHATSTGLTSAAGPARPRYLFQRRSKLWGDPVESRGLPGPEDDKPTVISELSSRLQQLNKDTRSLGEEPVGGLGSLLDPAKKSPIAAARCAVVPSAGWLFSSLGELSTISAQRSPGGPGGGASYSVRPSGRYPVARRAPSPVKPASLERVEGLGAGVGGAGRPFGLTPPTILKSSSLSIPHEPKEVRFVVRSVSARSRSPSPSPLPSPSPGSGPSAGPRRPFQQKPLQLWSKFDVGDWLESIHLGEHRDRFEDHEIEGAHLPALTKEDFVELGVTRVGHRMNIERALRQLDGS
UniProt P62834: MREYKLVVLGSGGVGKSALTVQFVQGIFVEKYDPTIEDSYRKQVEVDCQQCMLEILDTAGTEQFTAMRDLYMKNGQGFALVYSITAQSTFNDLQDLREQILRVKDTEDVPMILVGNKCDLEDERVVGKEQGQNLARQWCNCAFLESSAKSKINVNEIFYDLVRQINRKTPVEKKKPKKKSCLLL
UniProt P61224: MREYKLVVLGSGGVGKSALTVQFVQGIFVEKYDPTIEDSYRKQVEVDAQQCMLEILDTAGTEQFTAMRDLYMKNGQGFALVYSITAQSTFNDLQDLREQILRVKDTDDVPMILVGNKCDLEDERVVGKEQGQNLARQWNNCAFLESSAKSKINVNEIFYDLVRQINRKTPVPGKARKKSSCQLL

Results are given in words; binding and its absence hold for the method and conditions named. Binding can be weak; no strength is given. For some assays here: Binding seen in cells or lysates may run through a third protein.

Experiment [1] deals with GST SHANK3 SPN domain, wild type (rat) (UniProt Q9JLU4). Briefly: pull-down.
Experiment [2] has the same target. Nature of the experiment: co-sedimentation.

“GFP Rap1 Q63E (constitutively active human Rap1A) (from UniProt P62834 1-184)”: in experiment [1], the binding entry is reported as “binds”.

In the case of “active GMPPCP-loaded His-Rap1b (from UniProt P61224 1-184)”, the binding result in experiment [2] is on record as “binds”.
